Values of other authors in US6441049B2, “Method of treating neurodegenerative disorders via inhibition of amyloid beta peptide binding” (Ortho-McNeil Pharmaceutical, Inc., priority 1998, dated 2002).
At least one structure is not confirmed: it was looked up by name or label, or the drawing left a doubt.

Amino acid sequences for entries named in this document (tags omitted). Residues count along the entry.
UniProt P05067, 672-711 limits assumed: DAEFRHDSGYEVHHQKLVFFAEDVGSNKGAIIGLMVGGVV

Biological target: Aβ (Homo sapiens, UniProt P05067)
Conditions: cited from earlier work

## CO[C@H]1/C=C/O[C@@]2(C)Oc3c(C)c(O)c4c(O)c(c(/C=N/N5CCN(C)CC5)c(O)c4c3C2=O)NC(=O)/C(C)=C\C=C\[C@H](C)[C@H](O)[C@@H](C)[C@@H](O)[C@@H](C)[C@H](OC(C)=O)[C@@H]1C [rifampicin]
  Effect on Aβ aggregation and neurotoxicity: inhibits Aβ aggregation and neurotoxicity
